# Measurements taken from US12414958B2, “Medicament and use thereof for treating bacterial infections involving biofilm” (Debiopharm International S.A., priority 2019, dated 2025).
# At least one structure is not confirmed: it was looked up by name or label, or the drawing left a doubt.
# Test system: MSSA ATCC 29213
# Test: Mouse tissue cage model of staphylococcal biofilm infection, MSSA (Example 4)
# Type: in vivo, Staphylococcus aureus
# Conditions: 24-h biofilm MSSA ATCC 29213; 11-d treatment; cages explanted day 14
# Experimental: After the incubation, tubes were vortexed again and bacterial regrowth was assessed visually. […] The efficacy of treatment against adherent bacteria is expressed as the cure rate (in percent), defined as the number of cages without growth divided by the total number of cages in the individual treatment group.
row,Structure (SMILES),Cure rate: No. of cages without re-growth/No. of cages total
1,"Cc1c(CN(C)C(=O)/C=C/c2cnc3c(c2)CCC(=O)N3COP(=O)(O)O)oc2ccccc12 [Debio 1450, {6-[(1E)-3-{methyl [(3-methyl-1-benzofuran-2-yl)methyl]amino}-3-oxoprop-1-en-1-yl]-2-oxo-3,4-dihydro-1,8-naphthyridin-1 (2H)-yl} methyl dihydrogen phosphate]",1/7
2,CO[C@H]1/C=C/O[C@@]2(C)Oc3c(C)c(O)c4c(O)c(c(/C=N/N5CCN(C)CC5)c(O)c4c3C2=O)NC(=O)/C(C)=C\C=C\[C@H](C)[C@H](O)[C@@H](C)[C@@H](O)[C@@H](C)[C@H](OC(C)=O)[C@@H]1C [Rifampicin],7/7
